Values quoted from earlier work in patent publication US20070269503A1, “Combinations of HMG CoA reductase inhibitors and negatively charged phospholipids and uses thereof” (priority 2006, published 2007).
At least one structure is not confirmed: it was looked up by name or label, or the drawing left a doubt.

Details: 10-20 mg/day in 2 kg rabbits; cited from earlier work

Structure (SMILES) | reduction of plasma cholesterol levels
CC(C)n1c(/C=C/C(O)CC(O)CC(=O)O)c(-c2ccc(F)cc2)c2ccccc21 (centres unmarked) [fluvastatin] | approximately 60%
CC[C@H](C)C(=O)O[C@H]1C[C@H](O)C=C2C=C[C@H](C)[C@H](CC[C@@H](O)C[C@@H](O)CC(=O)O)[C@H]21 [pravastatin] | approximately 60%
